According to PubChem BioAssay AID248 (DTP/NCI, 2004):
The list shows only some results of the screen, not a fair sample: it is rich in T/C values a quarter to a half above the control, in often repeated tests (any T/C) and in doses without a T/C. Other doses and runs of a compound stand elsewhere. T/C: endpoint of the treated group in % of that of the vehicle group. Some entries give survivors of the animals treated and no T/C: the source holds a T/C of zero for them, seemingly a mark for toxic or unscored doses. Some doses without a T/C left all or most animals alive at the check, yet need not have been tolerated: the source hardly ever lists a survival T/C far under the control, and the zero likely stands for such cases as well. Survivors were counted at the toxicity check, usually on the fifth day, unless a day is given; later deaths do not show. Schedule codes are those of the source, taken here to give the interval after Q, in days (D) or hours (H), and the number of doses after X. Some structures stand for samples that the source files as different forms (salt, stereo form or complex); doses refer to the form tested. Where survival is the endpoint, the PubChem record calls one and a half times the control and up active, and a quarter to a half above the control has no call in these data; cut-offs in other NCI protocols can differ.

System: L1210 leukemia ip in BDF1 mice, survival T/C
Assay: NCI In Vivo Anticancer Drug Screen. Data for tumor model L1210 Leukemia (intraperitoneal) in B6D2F1 (BDF1) mice
Conditions: T/C endpoint: mean survival time, higher T/C = longer survival
[1] = dose: 400.0 mg/kg/injection, schedule: Q01DX001 (ip), vehicle: saline
[2] = dose: 200.0 mg/kg/injection, schedule: Q01DX009 (ip), vehicle: saline with Tween-80
[3] = dose: 400.0 mg/kg/injection, schedule: Q01DX009 (ip), vehicle: saline with Tween-80
[4] = dose: 400.0 mg/kg/injection, schedule: Q04DX003 (ip), vehicle: saline with Tween-80
[5] = dose: 100.0 mg/kg/injection, schedule: Q04DX003 (ip), vehicle: saline
[6] = dose: 200.0 mg/kg/injection, schedule: Q04DX003 (ip), vehicle: saline
[7] = dose: 400.0 mg/kg/injection, schedule: Q04DX003 (ip), vehicle: saline

Structure (SMILES): O=C1C(=O)c2ccccc2C(O)=C1CC=C(Cl)Cl
- survivor count (dose: 100.0 mg/kg/injection, schedule: Q01DX001 (ip), vehicle: saline): 0 of 6
- survivor count (dose: 100.0 mg/kg/injection, schedule: Q01DX001 (ip), vehicle: water): 1 of 6
- survivor count (dose: 100.0 mg/kg/injection, schedule: Q04DX003 (ip), vehicle: water): 6 of 10
- survivor count (dose: 200.0 mg/kg/injection, schedule: Q01DX001 (ip), vehicle: saline): 0 of 6
- survivor count (dose: 200.0 mg/kg/injection, schedule: Q01DX001 (ip), vehicle: water): 0 of 6
- survivor count (dose: 200.0 mg/kg/injection, schedule: Q01DX001 (oral), vehicle: saline): 2 of 6
- survivor count [1]: 0 of 6
- survivor count (dose: 400.0 mg/kg/injection, schedule: Q01DX001 (oral), vehicle: saline): 0 of 6
- survivor count (dose: 800.0 mg/kg/injection, schedule: Q01DX001 (oral), vehicle: saline): 0 of 6

Structure (SMILES): N/C(=N\O)c1nn(C2OC(CO)C(O)C2O)c2ncnc(N)c12 (stereo not drawn)
- T/C (dose: 12.5 mg/kg/injection, schedule: Q01DX005 (ip), vehicle: saline): 143 % of control
- survivor count (dose: 50.0 mg/kg/injection, schedule: Q01DX005 (ip), vehicle: saline): 6 of 6
- survivor count (dose: 100.0 mg/kg/injection, schedule: Q01DX005 (ip), vehicle: saline): 5 of 6
- survivor count (dose: 200.0 mg/kg/injection, schedule: Q01DX005 (ip), vehicle: saline): 0 of 6

Structure (SMILES): O=C(N/N=C/c1ccc(Cl)cc1)C(O)(c1ccccc1)c1ccccc1
- survivor count [2]: 6 of 6

Structure (SMILES): CCOC(=O)c1cc2nc(C(C)C)n(Cc3ccccc3)c2cc(C(=O)OCC)c1=O
- survivor count (dose: 400.0 mg/kg/injection, schedule: Q01DX009 (ip), vehicle: Klucel (hydroxypropylcellulose) (HPC)): 3 of 3

Structure (SMILES): CCC(/C=C1\[Se]c2ccc(C)cc2N1CC)=C\c1[se]c2ccc(C)cc2[n+]1CC
- survivor count (dose: 8.0 mg/kg/injection, schedule: Q01DX001 (ip), vehicle: other): 3 of 6
- survivor count (dose: 9.5 mg/kg/injection, schedule: Q01DX001 (ip), vehicle: other): 0 of 6
- survivor count (dose: 19.0 mg/kg/injection, schedule: Q01DX001 (ip), vehicle: other): 0 of 6
- survivor count (dose: 38.0 mg/kg/injection, schedule: Q01DX001 (ip), vehicle: other): 0 of 6

Structure (SMILES): Cc1ccc2c(n1)Nc1ncnc(N)c1S2
- survivor count (dose: 50.0 mg/kg/injection, schedule: Q04DX003 (ip), vehicle: Klucel (hydroxypropylcellulose) (HPC)): 3 of 3
- survivor count (dose: 100.0 mg/kg/injection, schedule: Q04DX003 (ip), vehicle: carboxymethylcellulose (CMC)): 0 of 6
- survivor count (dose: 200.0 mg/kg/injection, schedule: Q04DX003 (ip), vehicle: carboxymethylcellulose (CMC)): 0 of 6
- survivor count (dose: 400.0 mg/kg/injection, schedule: Q04DX003 (ip), vehicle: carboxymethylcellulose (CMC)): 0 of 6

Structure (SMILES): COC(=O)/C=C(\C(=O)OC)N1CCCCC1
- survivor count [2]: 0 of 6
- survivor count [3]: 2 of 6

Structure (SMILES): O=C(C(Sc1ccccc1)=P(c1ccccc1)(c1ccccc1)c1ccccc1)c1ccccc1
- survivor count [4]: 6 of 6

Structure (SMILES): COC(=O)C1C2CC3c4[nH]c5cc(OC)ccc5c4CCN3CC2CC(OC)C1OC (stereo not drawn)
- survivor count (dose: 12.5 mg/kg/injection, schedule: Q03HX024 (ip), vehicle: saline): 2 of 6
- T/C (dose: 25.0 mg/kg/injection, schedule: Q04DX003 (ip), vehicle: saline): 142 % of control
- survivor count (dose: 64.0 mg/kg/injection, schedule: Q01DX009 (ip), vehicle: saline): 0 of 6
- survivor count [5]: 2 of 4
- survivor count (dose: 128.0 mg/kg/injection, schedule: Q01DX009 (ip), vehicle: saline): 0 of 6
- survivor count (dose: 150.0 mg/kg/injection, schedule: Q01DX001 (ip), vehicle: saline): 2 of 6
- survivor count [6]: 0 of 4
- survivor count (dose: 256.0 mg/kg/injection, schedule: Q01DX009 (ip), vehicle: saline): 0 of 6
- survivor count (dose: 300.0 mg/kg/injection, schedule: Q01DX001 (ip), vehicle: saline): 0 of 6
- survivor count [7]: 0 of 4

Structure (SMILES): CCCCCCCCCN1CCCC(OC(=O)N(C)C)C1 (stereo not drawn)
- survivor count (dose: 200.0 mg/kg/injection, schedule: Q04DX002 (ip), vehicle: saline): 1 of 3
- survivor count (dose: 400.0 mg/kg/injection, schedule: Q04DX002 (ip), vehicle: saline): 0 of 3

Structure (SMILES): O=C(COc1ccc(Cl)c(Cl)c1)Nc1ccc[n+](Cc2ccccc2S(=O)(=O)F)c1
- survivor count (dose: 200.0 mg/kg/injection, schedule: Q04DX003 (ip), vehicle: saline with Tween-80): 2 of 6
- survivor count [4]: 1 of 6

Structure (SMILES): N#CC(C#N)=c1ccc(=C(C#N)C#N)cc1
- survivor count [1]: 1 of 4

Structure (SMILES): C[N+](C)(C)CCCC1C2CCC(C2)C1C#N (stereo not drawn)
- survivor count (dose: 25.0 mg/kg/injection, schedule: Q01DX009 (ip), vehicle: saline): 3 of 6
- survivor count (dose: 50.0 mg/kg/injection, schedule: Q01DX009 (ip), vehicle: saline): 3 of 6
- survivor count [5]: 0 of 6
- survivor count [6]: 0 of 6
- survivor count [7]: 0 of 6

Structure (SMILES): COc1ccc(OC)c2[nH]c(=O)c(CCC(=O)O)nc12
- survivor count (dose: 400.0 mg/kg/injection, schedule: Q04DX003 (ip), vehicle: other): 6 of 6

Structure (SMILES): CCOC(=O)c1ccc(NC(=O)Sc2ccc(C(C)(C)C)cc2C)cc1
- survivor count [3]: 5 of 6

Structure (SMILES): Clc1nc2ccccc2nc1CI
- survivor count (dose: 25.0 mg/kg/injection, schedule: Q01DX009 (ip), vehicle: Klucel (hydroxypropylcellulose) (HPC)): 2 of 6
- survivor count (dose: 50.0 mg/kg/injection, schedule: Q01DX009 (ip), vehicle: saline with Tween-80): 0 of 6
- survivor count (dose: 100.0 mg/kg/injection, schedule: Q01DX009 (ip), vehicle: saline with Tween-80): 0 of 6
- survivor count (dose: 100.0 mg/kg/injection, schedule: Q04DX003 (ip), vehicle: Klucel (hydroxypropylcellulose) (HPC)): 0 of 6

Structure (SMILES): O=C(O)c1cc(=O)c(O)c2c(O)c(O)c(O)cc2c1
- survivor count [1]: 2 of 4
